Experimental data: PubChem BioAssay AID1671195 (Yale University, 2021)

Assay: 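Genes whose knockdown alters LDL uptake in liver cancer cells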 (primary screen)
System: human Huh7 hepatoma cells
Reagents: siRNA pool against human genes, 18 nM
Time to read-out: about 2 to 2.5 days of knockdown, then 8 h LDL uptake
Conditions: DiI-labelled LDL at 30 µg/ml for 8 h, in lipoprotein-deficient serum medium
Detection: 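Fluorescent LDL signal imaged in cells, scaled to the plate median, robust z-score for each replicate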
Direction: robust z-score: higher = more LDL uptake after knockdown
Call rule: 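a gene counts as active if at least two replicate z-scores exceed ±2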
The whole screen tested about 22,000 reagents; shown is an unselected part. Over the whole deposit, about 1,510 (6.9%) got an active call. 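Active includes knockdowns raising or lowering LDL uptake; positive z-scores mean more uptake, negative mean less.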

Depletion of CTPS2 resulted in: robust z-score, replicate 1 = 1.53; robust z-score, replicate 2 = -0.157; robust z-score, replicate 3 = -0.322; inactive.
Against OR2J2 the deposit lists robust z-score, replicate 1 = 0.686; robust z-score, replicate 2 = 0.0164; robust z-score, replicate 3 = 0.0397; inactive.
SPRR2G gave robust z-score, replicate 1 = -1.01; robust z-score, replicate 2 = 0.0983; robust z-score, replicate 3 = -0.544; inactive.
COPS4 gave robust z-score, replicate 1 = -0.331; robust z-score, replicate 2 = -1.27; robust z-score, replicate 3 = 0.0933; inactive.
With knock-down of SMIM3 the results were robust z-score, replicate 1 = 4.33; robust z-score, replicate 2 = 3.37; robust z-score, replicate 3 = 4.57; active.
Against WDR3 the deposit lists robust z-score, replicate 1 = 0.24; robust z-score, replicate 2 = 0.787; robust z-score, replicate 3 = 0.326; inactive.
Silencing of ARHGEF5 resulted in: robust z-score, replicate 1 = -1.36; robust z-score, replicate 2 = -1.3; robust z-score, replicate 3 = -2.33; inactive.
After knock-down of LOC388565 (retired record) the results were robust z-score, replicate 1 = -0.827; robust z-score, replicate 2 = -0.629; robust z-score, replicate 3 = -0.889; inactive.
With knock-down of PYY2, the record shows robust z-score, replicate 1 = 4.1; robust z-score, replicate 2 = 1.75; robust z-score, replicate 3 = 1.5; inactive.
Against IL26, the values are robust z-score, replicate 1 = -0.566; robust z-score, replicate 2 = -1.74; robust z-score, replicate 3 = -1.32; inactive.
Silencing of TVP23B came out at: robust z-score, replicate 1 = -1.84; robust z-score, replicate 2 = 1.24; robust z-score, replicate 3 = 1.39; inactive.
Silencing of CLU gave: robust z-score, replicate 1 = -1.64; robust z-score, replicate 2 = -1.23; robust z-score, replicate 3 = -1.91; inactive.

Reagents listed above called active (1):
SMIM3 → robust z-score, replicate 1: 4.33; robust z-score, replicate 2: 3.37; robust z-score, replicate 3: 4.57; Call: active
